Results deposited as PubChem BioAssay AID743121 (NCATS, 2013).
This is a random part of about 26,000 reagents tested. Over the whole deposit, 167 (0.63%) are marked active. 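Calls are per gene from RSA p-values that are not deposited; an individual active-marked siRNA can sensitise only weakly.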 A number with no mark means an inactive call. The numbers tell different reagents against one gene apart. Reagent sequences are not shown.

Aim: 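Genes whose silencing strengthens cell killing by camptothecin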 (primary screen)
Cells: MDA-MB-231 cells, a human breast cancer line
Knock-down reagent: single siRNA against human genes, 20 nM siRNA (0.8 pmol per well)
Duration: 120 h (drug added 48 h after transfection, read 72 h later)
Conditions: camptothecin 20 nM (about EC30) for 72 h; vehicle 0.1% DMSO in parallel plates
Measured: 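Cell viability by ATP luminescence (CellTiter-Glo) as % of non-targeting siRNA wells, and the log2 ratio of viability without drug over viability with camptothecin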
Reading the numbers: log2 vehicle/camptothecin viability: higher = stronger sensitisation to camptothecin; viability with camptothecin and viability without drug: higher = more viable cells
Call rule: 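Active genes have an RSA gene-level p-value below 0.001, computed from the ratios of their separate siRNAs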

| gene | siRNA no. | log2 vehicle/camptothecin viability | viability with camptothecin (% of control) | viability without drug (% of control) |
| --- | --- | --- | --- | --- |
| PRIM1 | 1 | -0.0529 | 83.2 | 80.2 |
| PRIM1 | 2 | -0.69 | 56.5 | 35.1 |
| PRIM1 | 3 | -0.407 | 64.7 | 48.8 |
| PRIM1 | 4 | 0.122 | 58.1 | 63.2 |
| SDHB | 1 | -0.0765 | 82.6 | 78.4 |
| SDHB | 2 | 0.289 | 27.6 | 33.8 |
| SDHB | 3 | -0.495 | 77.1 | 54.7 |
| SDHB | 4 | -0.21 | 91.1 | 78.7 |
| INHBE | 1 | -0.00216 | 74.7 | 74.6 |
| INHBE | 2 | 0.0344 | 79.7 | 81.7 |
| INHBE | 3 | -0.094 | 39.2 | 36.7 |
| INHBE | 4 | 0.122 | 76.3 | 83 |
| EPOR | 1 | -0.331 | 100 | 79.8 |
| EPOR | 2 | 0.0921 | 92.3 | 98.4 |
| EPOR | 3 | -0.321 | 104 | 83.4 |
| EPOR | 4 | 0.757 | 31.3 | 52.9 |
| ALOX12B | 1 | -0.249 | 96.8 | 81.5 |
| ALOX12B | 2 | -0.236 | 75.2 | 63.9 |
| ALOX12B | 3 | -0.513 | 43.4 | 30.4 |
| ALOX12B | 4 | -0.0833 | 99.5 | 93.9 |
| NETO1 | 1 | -0.273 | 86.7 | 71.7 |
| NETO1 | 2 | 0.0476 | 75.4 | 78 |
| NETO1 | 3 | -0.202 | 52.1 | 45.3 |
| NETO1 | 4 | -0.131 | 73.8 | 67.4 |
| CHRNA5 | 1 | 0.0102 | 98.5 | 99.2 |
| CHRNA5 | 2 | -0.148 | 85.4 | 77.1 |
| CHRNA5 | 3 | -0.242 | 60.2 | 50.9 |
| CHRNA5 | 4 | -0.525 | 96.3 | 66.9 |
| LYST | 1 | -0.123 | 70.1 | 64.3 |
| LYST | 2 | -0.388 | 104 | 79.7 |
| LYST | 3 | -0.0802 | 103 | 97 |
| LYST | 4 | -0.189 | 112 | 98.3 |
| TREM2 | 1 | -0.226 | 42.8 | 36.6 |
| TREM2 | 2 | -0.566 | 68 | 45.9 |
| TREM2 | 3 | 0.779 | 51.1 | 87.7 |
| TREM2 | 4 | 0.0239 | 87.1 | 88.6 |
| SLC25A40 | 1 | 0.154 | 55.2 | 61.4 |
| SLC25A40 | 2 | -0.0186 | 102 | 101 |
| SLC25A40 | 3 | -0.615 | 70 | 45.7 |
| SLC25A40 | 4 | 1.21 | 15.8 | 36.7 |
| KIDINS220 | 1 | -0.177 | 130 | 115 |
| KIDINS220 | 2 | -0.15 | 35.7 | 32.2 |
| KIDINS220 | 3 | -0.0342 | 104 | 101 |
| KIDINS220 | 4 | -0.329 | 115 | 91.6 |

Next part (8 carried over from the part before).
| gene | siRNA no. | log2 vehicle/camptothecin viability | viability with camptothecin (% of control) | viability without drug (% of control) |
| --- | --- | --- | --- | --- |
| SLC25A40 | 1 | 0.154 | 55.2 | 61.4 |
| SLC25A40 | 2 | -0.0186 | 102 | 101 |
| SLC25A40 | 3 | -0.615 | 70 | 45.7 |
| SLC25A40 | 4 | 1.21 | 15.8 | 36.7 |
| KIDINS220 | 1 | -0.177 | 130 | 115 |
| KIDINS220 | 2 | -0.15 | 35.7 | 32.2 |
| KIDINS220 | 3 | -0.0342 | 104 | 101 |
| KIDINS220 | 4 | -0.329 | 115 | 91.6 |
| DYNC1LI2 | 1 | -0.367 | 111 | 86.3 |
| DYNC1LI2 | 2 | 0.625 | 21.9 | 33.7 |
| DYNC1LI2 | 3 | -0.259 | 78.5 | 65.6 |
| DYNC1LI2 | 4 | 0.0343 | 92.7 | 95 |
| PEX19 | 1 | 0.171 | 51.3 | 57.7 |
| PEX19 | 2 | -0.345 | 97.7 | 76.9 |
| PEX19 | 3 | -0.0722 | 93.1 | 88.5 |
| STK31 | 1 | -0.0586 | 114 | 110 |
| STK31 | 2 | -0.122 | 69.2 | 63.6 |
| STK31 | 3 | -0.014 | 72.2 | 71.5 |
| STK31 | 4 | -0.351 | 52.2 | 40.9 |
| ONECUT3 | 1 | -0.0909 | 91.8 | 86.2 |
| ONECUT3 | 2 | -0.0546 | 35.3 | 34 |
| ONECUT3 | 3 | -0.0163 | 79.5 | 78.7 |
| ONECUT3 | 4 | -0.309 | 66.9 | 54 |
| FAAH | 1 | 0.0514 | 82 | 85 |
| FAAH | 2 | 0.693 | 20.7 | 33.5 |
| FAAH | 3 | -0.235 | 63.9 | 54.3 |
| FAAH | 4 | 0.192 | 72.7 | 83 |
| AKAP9 | 1 | -0.114 | 83 | 76.7 |
| AKAP9 | 2 | -0.259 | 78.8 | 65.9 |
| AKAP9 | 3 | -0.235 | 101 | 85.8 |
| AKAP9 | 4 | 0.0121 | 98.9 | 99.7 |
| RAG2 | 1 | 0.0977 | 76.2 | 81.6 |
| RAG2 | 2 | 0.0235 | 63.1 | 64.2 |
| RAG2 | 3 | -0.374 | 78.3 | 60.4 |
| RAG2 | 4 | -0.225 | 56.6 | 48.4 |
